Patent US20210134398A1, “Combinatorial Chemistry Computational System and Enhanced Selection Method” (Southern Methodist University, priority 2019, published 2021)
Some results were stated once for a whole list of compounds, not compound by compound. For at least one compound, name, drawing or mass did not settle the structure.

Test system: P-gp overexpressing prostate cancer cell line, DU145TXR
Assay: MTT cell viability assay, resensitization to paclitaxel
Type: cell-based, human
Conditions: 3 μM inhibitor, vs paclitaxel + parental compound 29
Text: The Group 1 ChemGen/docking routine produced variants of P-gp inhibitor 29 resensitize a multidrug resistant, P-gp overexpressing prostate cancer cell line to paclitaxel. The mitochondrial reduction potential of cells is often used as an indicator for cell viability using MTT assays^4. Using these assays it was observed that the five Group 1 derivatives of 29 predicted through the ChemGen/docking routine and synthesized here, 216, 227, 231, 541 and 551, re-sensitized the P-gp overexpressing prostate cancer cell line, DU145TXR^33, to the chemotherapeutic, paclitaxel (FIG. 12, showing results of assays at concentrations of 3 μM, 5 μM, 7 μM, and 10 μM).
Cytotoxicity of the chemotherapeutic, paclitaxel (PTX) to P-gp overexpressing prostate cancer cells, DU145TXR, was determined in the absence and presence of the ChemGen designed 29-variants, 216, 227, 231, 541 and 551. […]
MTT cell viability assay. […] The absorbance at 570 nm was then measured using a BioTek Cytation 5 imaging multi-mode reader (Bio-Tek, Winooski, Vt.). Percent viability was calculated using DMSO treated cells as representative for 100% viability, according to Equation 1. Background absorbance was determined using MTT and complete medium without cells and subtracted from all the test values. […]

SMILES | Fold vs PTX + 29 (listed as 227) [fold] | Fold vs PTX + 29 (listed as 231) [fold]
Cc1cc(C)c(-c2cc(NC(=O)CSCC(=O)N3c4ccccc4CCc4ccccc43)n(-c3ccccc3)n2)cc1C [29-227, 2-[(2-{2-azatricyclo[9.4.0.0]pentadeca-1(11),3(8},4,6,12,14-hexaen-2-yl)-2-oxoethyl)sulfanyl]-N-[1-phenyl-3-(2,4,5-trimethylphenyl)-1H-pyrazol-5-yl]acetamide] | 4 to 11 | 
Cc1cc(C)c(-c2cc(NC(=O)CSCC(=O)Nc3ccc4ccccc4c3)n(-c3ccccc3)n2)cc1C [29-231, 2-({[(naphthalen-2-yl)carbamoyl]methyl}sulfanyl)-N-[1-phenyl-3-(2,4,5-trimethylphenyl)-1H-pyrazol-5-yl]acetamide] |  | 4 to 11
